Measured values from ChEMBL document CHEMBL5352400, “Design, synthesis and biological evaluation of novel coumarin derivatives as multifunctional ligands for the treatment of Alzheimer's disease” (Eur J Med Chem, 2022).

Assay: Effective permeability of the compound in PBS buffer at pH 7.4/EtOH buffer (7:3) incubated for 20 hrs by UV-plate spectroscopy based PAMPA-BBB assay

Molecule `COc1cc2c(cc1OC)C(=O)C(CC1CCN(Cc3ccccc3)CC1)C2` (stereo unspecified) [DONEPEZIL] has a Papp at 20 h of 20.6 ×10⁻⁶ cm/s.
